Data as given in PubChem BioAssay AID1224828 (NIAID, 2016)
Test: 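Find genes required for NF-kappaB p65 moving into the nucleus after LPS in mouse macrophages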 (primary screen). Cells: mouse RAW264.7 G9 macrophage reporter cells (GFP-p65, Tnf promoter-mCherry). Reagents: siRNA pool against mouse genes, 100 nM. Timing: 2 days siRNA transfection, then 40 min LPS before fixation. Conditions: LPS (Salmonella minnesota R595) at 10 ng/ml. Read-out: 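Microscopy ratio of nuclear to perinuclear-ring GFP-p65 signal, scaled to the plate median; gene score is the average of two replicate robust z-scores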. Reading the numbers: p65 translocation robust z-score: higher = more nuclear NF-kappaB p65 after LPS than the plate median; nuclear/cytoplasmic p65 ratio: higher = more nuclear NF-kappaB p65. Hit rule: 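Active if robust z is above 3.3 (negative regulators) or below -1.56, the Tlr4 control median (positive regulators); activity score 50 or more; control wells not called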. Meaning of the calls: active = hit (p65 shift raised or lowered); inactive = no clear change.
The deposit covers about 17,000 reagents; below is an unselected part. Over the whole deposit, 762 (4.5%) are marked active. 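Active calls include both raised and lowered p65 entry, mostly lowered; wells with fewer than 50 cells lack a z-score.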 Raw values vary from plate to plate and are shown uncorrected. Unmarked entries are inactive. Reagent sequences are not shown.

With knock-down of Lenep (lens epithelial protein), the record shows p65 translocation robust z-score 1.28; nuclear/cytoplasmic p65 ratio, rep 1 = 1.94; nuclear/cytoplasmic p65 ratio, rep 2 = 1.64; low cell count flag enough cells to score.
After knock-down of Vegfa (vascular endothelial growth factor A), the screen gave p65 translocation robust z-score -0.34; nuclear/cytoplasmic p65 ratio, rep 1 = 1.42; nuclear/cytoplasmic p65 ratio, rep 2 = 1.5; low cell count flag enough cells to score.
Depletion of Htra1 (HtrA serine peptidase 1) came out at: p65 translocation robust z-score 1.79; nuclear/cytoplasmic p65 ratio, rep 1 = 1.8; nuclear/cytoplasmic p65 ratio, rep 2 = 1.59; low cell count flag enough cells to score.
With knock-down of Zmym3 (zinc finger, MYM-type 3), the screen gave p65 translocation robust z-score 1.81; nuclear/cytoplasmic p65 ratio, rep 1 = 1.66; nuclear/cytoplasmic p65 ratio, rep 2 = 1.45; low cell count flag enough cells to score.
Pirb (paired Ig-like receptor B) showed p65 translocation robust z-score 1.6; nuclear/cytoplasmic p65 ratio, rep 1 = 1.63; nuclear/cytoplasmic p65 ratio, rep 2 = 1.35; low cell count flag enough cells to score.
Silencing of Tmem260 (transmembrane protein 260) resulted in: p65 translocation robust z-score 1.53; nuclear/cytoplasmic p65 ratio, rep 1 = 1.73; nuclear/cytoplasmic p65 ratio, rep 2 = 1.66; low cell count flag enough cells to score.
Depletion of Gpd2 (glycerol phosphate dehydrogenase 2, mitochondrial) gave: p65 translocation robust z-score 0.33; nuclear/cytoplasmic p65 ratio, rep 1 = 1.4; nuclear/cytoplasmic p65 ratio, rep 2 = 1.43; low cell count flag enough cells to score.
Silencing of A130010J15Rik (RIKEN cDNA A130010J15 gene) gave: p65 translocation robust z-score 1.52; nuclear/cytoplasmic p65 ratio, rep 1 = 1.61; nuclear/cytoplasmic p65 ratio, rep 2 = 1.71; low cell count flag enough cells to score.

Quoted from the listing for reference:
Pirb (paired Ig-like receptor B) — p65 translocation robust z-score = 1.6; nuclear/cytoplasmic p65 ratio, rep 1 = 1.63; nuclear/cytoplasmic p65 ratio, rep 2 = 1.35; low cell count flag = enough cells to score
Tmem260 (transmembrane protein 260) — p65 translocation robust z-score = 1.53; nuclear/cytoplasmic p65 ratio, rep 1 = 1.73; nuclear/cytoplasmic p65 ratio, rep 2 = 1.66; low cell count flag = enough cells to score

The listing continues.
Against Deup1 (deuterosome assembly protein 1) the deposit lists nuclear/cytoplasmic p65 ratio, rep 1 = 1.33; nuclear/cytoplasmic p65 ratio, rep 2 = 1.22; low cell count flag fewer than 50 cells per well; well left out of scoring.
Against Pheta2 (PH domain containing endocytic trafficking adaptor 2), the entry reads nuclear/cytoplasmic p65 ratio, rep 1 = 1.05; nuclear/cytoplasmic p65 ratio, rep 2 = 0; low cell count flag fewer than 50 cells per well; well left out of scoring.
Dazap1 (DAZ associated protein 1) showed p65 translocation robust z-score -1.66 (active); nuclear/cytoplasmic p65 ratio, rep 1 = 1.22; nuclear/cytoplasmic p65 ratio, rep 2 = 1.42; low cell count flag enough cells to score.
Knock-down of Or2h1 (olfactory receptor family 2 subfamily H member 1) gave: p65 translocation robust z-score -0.51; nuclear/cytoplasmic p65 ratio, rep 1 = 1.46; nuclear/cytoplasmic p65 ratio, rep 2 = 1.11; low cell count flag enough cells to score.
Silencing of Mvb12a (multivesicular body subunit 12A) resulted in: nuclear/cytoplasmic p65 ratio, rep 1 = 1.69; nuclear/cytoplasmic p65 ratio, rep 2 = 1.47; low cell count flag fewer than 50 cells per well; well left out of scoring.
With knock-down of Kng2 (kininogen 2), the record shows p65 translocation robust z-score -0.63; nuclear/cytoplasmic p65 ratio, rep 1 = 1.38; nuclear/cytoplasmic p65 ratio, rep 2 = 1.31; low cell count flag enough cells to score.
